For at least one entry, the source does not settle the construct or the ends of the probe. Results from cells or extracts need not show a direct contact. The comparison behind a weaker result is the experiment's own reference, which may not be listed here. At least one verdict rests on a figure or table, not on a statement of the authors.
Molecular target: FLAG-BCL11A zinc fingers 4-6 (UniProt Q9H165)
Test: EMSA
Settings: 10 mM HEPES pH 7.8, 50 mM KCl, 5 mM MgCl2, 1 mM EDTA, 50 ug/mL poly(dI-dC), 1 mM DTT, 100 ug/mL BSA, 5% glycerol, 6% native PAGE in TBE at 4 C, protein in a lysate after overexpression, protein details: FLAG, label: 32P (5' end, sense strand)

By UniProt entry, the sequences of proteins in these tests, tags left out. Residues count along the entry.
UniProt Q9H165, 742-823: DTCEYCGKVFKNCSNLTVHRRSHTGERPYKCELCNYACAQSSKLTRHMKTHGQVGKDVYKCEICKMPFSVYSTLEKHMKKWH

## AGCCTTGCCTTGACCAATAGCCTTGACAA (double strand) [HBG1/2 promoter WT probe]
anti-FLAG supershift
  binding result: binds

## AGCCTTGCCTTGAACCAATAGCCTTGACAA (double strand) [HBG1/2 promoter +1 probe]
  binding result: binds more weakly
